PubChem BioAssay AID488835 (Broad Institute, 2010)
Out of some 1,400 compounds screened, about 140 (10%) were called active.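 How the source made its calls: active means Half-maximal inhibitory dose from the fit at or below ten times the top valid tested dose; inconclusive means Invalid fit, or flat curve showing 30 to 70% inhibition; inactive means the rest.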 Only a part is listed here, and it is no random draw. Potency and affinity values are given separately.

Sequences of proteins named here, by UniProt entry; tags and fusion partners are left off. Residues count along the entry.
UniProt Q9H3R0, 1-420 limits assumed: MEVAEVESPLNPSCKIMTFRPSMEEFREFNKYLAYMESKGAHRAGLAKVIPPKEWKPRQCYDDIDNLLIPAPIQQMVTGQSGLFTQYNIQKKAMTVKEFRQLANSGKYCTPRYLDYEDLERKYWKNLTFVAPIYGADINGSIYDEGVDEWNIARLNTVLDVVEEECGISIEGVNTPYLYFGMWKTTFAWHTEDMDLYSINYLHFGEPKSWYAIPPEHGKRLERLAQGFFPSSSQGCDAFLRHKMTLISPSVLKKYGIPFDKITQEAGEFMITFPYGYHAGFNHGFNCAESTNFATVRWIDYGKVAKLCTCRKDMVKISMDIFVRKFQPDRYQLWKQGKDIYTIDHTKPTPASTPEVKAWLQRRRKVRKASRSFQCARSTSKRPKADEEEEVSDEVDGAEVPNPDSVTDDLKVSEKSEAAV

What follows are compounds tested against Lysine-specific demethylase 4C (Homo sapiens) (UniProt Q9H3R0) (assay: inhibition of JMJD2C H3K9me3 demethylation – biochemical, DELFIA europium, cherry-picked samples, dose response (AID 488835;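 further: signal is the H3K9me2 demethylation product detected by a dimethyl-specific antibody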)). Details: GST-JMJD2C(1-420); at 6 µM (top of the series) unless noted.

Activity change, negative = inhibition, inactive:
Cc1c(Cl)c(-c2n[nH]c(=S)n2-c2ccc(F)cc2)nn1C 17.3%
CC(C)Cn1c(N)c(C(=O)COC(=O)c2c(O)c(Cl)cc(Cl)c2Cl)c(=O)n(C)c1=O 13.9%
O=c1oc2ccccc2cc1-c1nc(-c2cccs2)cs1 -0.974% [at 1.6 µM]
CS(=O)(=O)N(CC(=O)Nc1ccccc1C(=O)NCCc1ccccc1)c1ccc2c(c1)OCCO2 -4.8%
OCc1csc(=Nc2ccccc2)n1-c1ccccc1 -7.27%
COC(=O)[C@]1(Cc2ccccc2)N[C@H](CN(C)S(=O)(=O)c2ccc(-c3ccccc3)cc2)[C@@H]2C(=O)N(C)C(=O)[C@@H]21 -2.33%
CCC(C)(C)NC(=O)C(c1ccc(C)o1)N(Cc1cccs1)C(=O)Cn1nnc2ccccc21 (stereo unspecified) -2.77%
Cc1nnc(SCC(=O)Nc2sccc2C(N)=O)n1Cc1ccccc1 -10.5%
Cc1cc2cc3c(cc2nc1SCC(=O)N1CCOCC1)OCO3 3.16%
CCn1c(SCC(=O)Nc2nc(C)cs2)nnc1-c1ccncc1 3.16%
Cc1cccc(NC(=O)/C(=C\c2ccc([N+](=O)[O-])o2)NC(=O)c2ccc(Cl)cc2)c1 -5.59%
CCC(=O)N1c2ccc(S(=O)(=O)CCC(=O)NCCC3=CCCCC3)cc2CC1C (stereo unspecified) -5.61%
CCOC(=O)CCCCCC(=O)Nc1ccc2c(c1)CC(=O)N([C@@H](C)CO)C[C@H](C)[C@@H](CN(C)C(=O)Nc1ccc3c(c1)OCO3)O2 -7.35%
COC(=O)[C@]1(C)N[C@H](CN(C)C(=O)NC(C)C)[C@@H]2C(=O)N(Cc3ccccc3)C(=O)[C@@H]21 0.422%
N#CC1=C(C2CC2)CC(c2ccccc2)C(C#N)=C1N (stereo unspecified) 0.542%
C/C(=N\NC(=S)NCc1ccccc1)c1ccco1 4.47%
CCN(CC)C(=O)[C@H]1CC(CC(=O)NC/C=C(\C)CCC=C(C)C)C(=O)N2CCc3c([nH]c4ccccc34)[C@]12C (stereo partly specified) -7.06%
Cn1c(SCC(=O)N2CCCC2=O)nnc1-c1ccccc1F -9.87%
Cc1ccc(OCCSc2nnc(-c3cccs3)n2C)cc1 6.27%
Cc1nc2nc(C)c(CCC(=O)NCc3ccc4c(c3)OCO4)c(C)n2n1 -7.32%
COC(=O)COc1ccc(Oc2cc(C)nc(SC)n2)nn1 0.0464%
CC[C@]12c3[nH]c4ccccc4c3CCN1C(=O)C(CC(=O)NCCCOC)C[C@@H]2C(=O)N1CCN(C(=O)C2CC2)CC1 (stereo partly specified) 5.84%
CN1CCC[C@H]1CCNC(=O)c1c(-c2ccsc2)sc2ccccc12 0.336%
COc1ccc(C(=O)N2CCCC(c3nc(-c4ccc(OC)c(OC)c4)no3)C2)c(OC)c1 (stereo unspecified) 7.3%
C[C@H](CO)N1C[C@H](C)[C@@H](CN(C)C(=O)Nc2ccc(C(F)(F)F)cc2)Oc2c(cccc2N(C)C)C1=O 5.89%
Cc1onc(-c2c(F)cccc2Cl)c1C(=O)NC1CC1 -4.82%
O=[N+]([O-])c1cc(-c2cnc3ccccc3n2)ccc1Oc1ccc(F)cc1 -2.01%
Cc1cccn2c(=O)c3cc(C(=O)NCCN4CCOCC4)c(=N)n(CCc4ccccc4)c3nc12 -4.39%
Cc1ccc(S(=O)(=O)NC(=O)NCc2ccc(Cl)cc2)cc1 2.2%
Cc1cccc(C2=N/C(=C\c3cccnc3)C(=O)O2)c1 0.125%
CCN1CCC(=NNC(=O)c2ccc(C)c([N+](=O)[O-])c2)CC1 1.68%
CCOc1cc(CN2CCN(CCc3ccccc3)C(CCO)C2)ccc1OC (stereo unspecified) 4.52%
N#CC(=C1CCCC1)c1nc(-c2ccccc2)cs1 -4.71%
O=C(CSc1nnnn1-c1ccc(Cl)cc1)N1CCc2ccccc2C1 -2.61% [at 1.6 µM]
CCOc1ccc(-c2c(C#N)c(N)nc3c2c(=O)n(C)c(=O)n3C)cc1OC -0.465% [at 1.6 µM]
COc1ccc(-c2nnc(SC(C)C(=O)NCc3ccc4c(c3)OCO4)n2Cc2ccco2)cc1 (stereo unspecified) -2.31%
CCN1C(=O)C(C(=O)Nc2ccc(OC)cc2)C2CC1(C)Oc1ccccc12 (stereo unspecified) 4.42%
Cc1cc(OC(=O)c2c(C)cc(OC(=O)c3c(C)cc(O)cc3O)cc2O)cc(O)c1C(=O)O -3.02%
CCOC(=O)N1CCC(c2nc3ccccc3[nH]2)CC1 4.41%
CC(C)CCn1c(NCCN(C)C)nc2c1c(=O)[nH]c(=O)n2C 1.91%
O=c1oc(C2(O)CCCCC2)cc2ccccc12 1.2%
CCCCOc1ccc(C(=O)Nc2ccc(N3CCN(C(C)=O)CC3)cc2)cc1 12.3%
Cc1[nH]c2ccccc2c1-c1ccc(Cl)nn1 7.91%
Clc1ccccc1Cn1nnc2c(NCCN3CCOCC3)ncnc21 -4.09%
CCc1ccc(-c2nnn(Cc3nn[nH]n3)n2)cc1 1.52%
CC(C)CNC(=O)c1ccc(NC(=O)c2cccs2)cc1 0.895%
CCOc1cc(/C=N/NC(=O)C(=O)N/N=C/c2ccc(O)c(OCC)c2)ccc1O -5.54%
CCS(=O)(=O)N1CCN(c2ccc([N+](=O)[O-])c(N3CCOCC3)c2)CC1 8.83%
O=C(NS(=O)(=O)c1ccc2c(c1)OCCO2)c1ccccc1 -13.5%
CC(=O)C[C@H](O)CC(=O)[C@H]1OC(=O)[C@H](C)CCCCc2ccccc21 -2.76%
CCOC(=O)c1ccc2c(c1)nc(COc1ccc3ccccc3c1)n2CC -2.46%
C[C@@H](NC(=O)Cn1cnc2c(OCc3ccccc3)ncnc21)c1cccc2ccccc12 3.9%
C#CCNC(=O)C1=C[C@@H](c2ccc(C(F)(F)F)cc2)C[C@@H](OCCCCO)O1 6.13%
O=C(NCc1nnc(SCC(=O)N2CCCC2)o1)c1ccccc1F 7.1%
Cc1cc(NC(=O)Nc2c[nH]c(=O)[nH]c2=O)ccc1Br -1%
CCn1c(O)c(N=NC2=NC(=O)CS2)c2ccccc21 0.856%
COc1ccc(NC(=O)N(C)C[C@H]2Oc3ccc(NC(=O)CCN4CCOCC4)cc3C(=O)N([C@H](C)CO)C[C@@H]2C)cc1 -0.451%
Cc1ccc(S(=O)(=O)N2CCOCC2)cc1NC(=O)COC(=O)c1cc(=O)[nH]c2ccccc12 -7.07%
CCCCN1CC[C@H]2C=CC[C@@H](C(=O)Nc3ccc(OC)cc3)[C@H]2C1=O 8.42%
COc1ccccc1CNC(=O)COc1ccc(S(=O)(=O)N2CCOCC2)cc1C -1.32%
Cc1ccc(/C(N)=N/OC(=O)CCC2CCCCC2)cc1 2.9%
CCN(CC)C(=O)[C@H]1CC(CC(=O)NCc2cccc(C(F)(F)F)c2)C(=O)N2CCc3c([nH]c4ccccc34)[C@]12C (stereo partly specified) -2.44%
CCNC(=O)c1ccc2c(c1)S(=O)(=O)c1ccccc1C2=O -10.2%
COc1ccc(S(=O)(=O)Nc2ccc3c(c2)CC(=O)N([C@@H](C)CO)C[C@H](C)[C@@H](CN(C)S(=O)(=O)c2ccc(F)cc2)O3)cc1 -9.86%
N=C1C(c2nc3ccccc3s2)=C(O)CN1Cc1ccccc1 -5.43%
COc1ccc(/C=N/NS(=O)(=O)c2ccc(NC(C)=O)cc2)cc1 2.82%
COc1cc([N+](=O)[O-])ccc1NC(=O)CSc1nccn1C 9.26%
Cc1cccc(NCc2ccc(O)c3ncccc23)c1 10.8%
O=C(NCCNc1ccc([N+](=O)[O-])cc1C(F)(F)F)c1ccccc1 5.47%
O=C(Nc1c(F)cc(F)cc1Br)c1ccco1 -0.923%
O=C(NNC(=O)c1cccnc1Cl)c1ccc(F)cc1 0.449%
Cc1ccc(-c2nnc(SC(C)C(=O)NCC3CCCO3)nc2-c2ccc(C)cc2)cc1 (stereo unspecified) 2.1%
C[C@H](CO)N1C[C@H](C)[C@H](CN(C)Cc2ccc(Oc3ccccc3)cc2)Oc2ccc(NC(=O)Nc3cccc4ccccc34)cc2CC1=O -7.19%
Cc1c(C(=O)NCc2cccs2)oc2ccccc12 4.33%
CCn1c(=O)c(-c2nc3ccccc3[nH]2)c(O)c2ccccc21 -0.309%
OC[C@H]1O[C@@H]2O[C@H]3[C@H](O)[C@@H](O)[C@@H](O[C@H]4[C@H](O)[C@@H](O)[C@@H](O[C@H]5[C@H](O)[C@@H](O)[C@@H](O[C@H]6[C@H](O)[C@@H](O)[C@@H](O[C@H]7[C@H](O)[C@@H](O)[C@@H](O[C@H]1[C@H](O)[C@H]2O)O[C@@H]7CO)O[C@@H]6CO)O[C@@H]5CO)O[C@@H]4CO)O[C@@H]3CO 0.497%
Cc1noc(C)c1COc1ccc(C(=O)OC(C)C(=O)Nc2ccc(N3CCOCC3)cc2)cc1 (stereo unspecified) 3.93%
Cc1cccc(NC(=O)C2CCCN(S(=O)(=O)c3c(C)nn(C)c3C)C2)n1 (stereo unspecified) 3.35% [at 1.6 µM]
O=C(NCc1ccccc1Br)c1cccc2c1C(=O)c1ccc(N3CCC(Cc4ccccc4)CC3)cc1S2(=O)=O -3.9%
Cc1ccc(NC(=O)c2cccc3c2C(=O)N(C2CCCCC2)C3)c(C)c1 8.82%
O=C(CCN1C(=O)/C(=C/c2ccc(F)cc2)SC1=S)N[C@@H](CO)Cc1ccccc1 8.35%

Some of these compounds in order of SMILES length, ascending.
Activity change, negative = inhibition, inactive:
Cc1c(C(=O)NCc2cccs2)oc2ccccc12 4.33%
N=C1C(c2nc3ccccc3s2)=C(O)CN1Cc1ccccc1 -5.43%
CCN(CC)C(=O)[C@H]1CC(CC(=O)NC/C=C(\C)CCC=C(C)C)C(=O)N2CCc3c([nH]c4ccccc34)[C@]12C (stereo partly specified) -7.06%

Looked up one by one from above, 2 records:
Activity change, negative = inhibition, inactive:
CCN(CC)C(=O)[C@H]1CC(CC(=O)NCc2cccc(C(F)(F)F)c2)C(=O)N2CCc3c([nH]c4ccccc34)[C@]12C (stereo partly specified) -2.44%
Cc1onc(-c2c(F)cccc2Cl)c1C(=O)NC1CC1 -4.82%
